The assay addresses T1, biotin-TUBA1A 440-450 (human).
T1 construct: C-terminal tail of human alpha-tubulin TUBA1A, amino acids 440-450, without the terminal tyrosine (detyrosinated); source: synthetic peptide (Thermo Fisher Scientific)
T1 peptide: Biotin-VEGEGEEEGEE
Nature of the assay: SPR; steady-state binding assay, Biacore-T200; biotinylated peptides immobilized on a streptavidin (SA) sensor chip at 100-300 response units; A1aY1 titrated from 0.031 to 200 µM; 1x HBS-P+ (10 mM Hepes, 150 mM NaCl, 0.05% surfactant P20), 30 µl/min; 1:1 binding considered, one site total fit; both purified.

No constants are given. Whether binding was seen depends on the method and setting. Where no end group is shown, it is not given here. The star is where a group is joined. Biotin = O=C1N[C@H]2[C@H](CS[C@H]2CCCCC(=O)*)N1

B1: A1aY1 binder (designed binder)
chain: MATVKFKYKGEEKQVDISKILSVGRYGKLIHFLYDLGGGKAGMGMVSEKDAPKELLQMLEKQKK
notes: A1aY1, an SSO7D mutant selected from a combinatorial yeast display library; (His6, thrombin site, A1aY1); Protein used in the SPR steady-state titrations; The results say 'without any tags'; the methods describe the stored protein as 9.3 kD, which is the size with His6 and thrombin site, and tell of thrombin cleavage only for the NMR sample; also called tyrosination sensor; source: E. coli …
Take B1: the binding result is listed as “no binding (tested: >60 µM)”.

The values above are taken from paper PMC7659708, “Genetically encoded live-cell sensor for tyrosinated microtubules” (The Journal of Cell Biology, 2020).
